Measured values published in PubChem BioAssay AID493014 (National Center for Advancing Translational Sciences (NCATS), 2011).
The campaign covered roughly 340,000 compounds. About 170 (0.05%) were called active. Inconclusive results, whose numbers are uncertain, are shown with a selection of clear calls. Calls come from the whole dose curve; as a rule, active = well fitted inhibition curve with a large enough effect in the signal ratio, with a control signal flat (not every such curve was filed as active); inconclusive = small, poorly fitted or top-dose-only effect, or effect the other way, or a change in a side signal; inactive = flat fitted curve, though single readings scatter; the % refers to the signal ratio. Where the call is inconclusive, the potency comes from a doubtful curve fit.

assay: qHTS Assay to Find Inhibitors of Chronic Active B-Cell Receptor Signaling; details: ABC-DLBCL IkBa-CBG/CBR reporter, luminescence ratio (green luciferase fused to IkBa over red control in TMD8 lymphoma cells), 4 h; activity change, negative = inhibition: at 46.1 µM (top of the series);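 for activity change, negative = inhibition: plate controls were basal doxycycline-induced cells for no effect and cells given 10 µM MG132 for full effect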
Method in brief: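 Compounds up to 46 uM were incubated four hours with TMD8 cells whose green CBG68 luciferase is fused to IkappaBalpha; red CBR luminescence normalised the signal, and concentration-effect curves were fitted to fusion, red and ratio data.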
Potency is the fitted concentration of half-maximal effect.

Row | Compound | Potency | activity change, negative = inhibition
1 | O=C(Cn1cnc2sc(-c3ccccc3)cc2c1=O)NCc1ccccc1 | inconclusive: 29.1 µM [falling, partial curve, poor fit] | 
2 | CS(=O)(=O)c1ccc2nc(NC(=O)Nc3cccc(Cl)c3)sc2c1 |  | inconclusive: 13.1%
3 | COc1ccc(CNCCC(c2ccc(F)cc2)c2ccc(OC(C)C)cc2)cc1OC (centres undefined) | inconclusive: 28.2 µM [falling, single point] | 
4 | NNC(=O)COc1ccc(-c2n[nH]c(C(F)(F)F)c2-c2ccc(Br)cc2)c(O)c1 |  | inconclusive: 9.74%
5 | COc1ccccc1CNC(=O)CCc1c(C)nc2cc(-c3ccccc3OC)nn2c1C | inconclusive: 14.1 µM [falling, partial curve] | 
6 | O=c1c2ccccc2nc2n1CCS2 |  | inactive
7 | O=C(NS(=O)(=O)c1ccccc1)c1ccccc1 |  | inconclusive: 15.8%
8 | Cc1ccc(SCc2ccc(C(=O)Nc3nccs3)o2)cc1 |  | inconclusive: 0.193%
9 | Cc1cccc(-c2noc(CNC(=O)Nc3ccc(F)cc3)n2)c1 |  | inactive
10 | CCOC(=O)C1(Cc2ccc(Cl)cc2)CCN(C(C)Cc2ccc(O)c(OC)c2)CC1 (centres undefined) |  | inconclusive: -21.4%
11 | Cc1n[nH]c(C)c1Sc1ccccc1N=Cc1cc(Cl)cc([N+](=O)[O-])c1O |  | inactive
12 | CC(=O)c1cccc(Nc2cc(C)nc3ccccc23)c1 |  | inactive
13 | Cc1ccc(Nc2nnc(SCC(=O)Nc3cccc(S(=O)(=O)NC4=NCCCCC4)c3)s2)cc1 | inconclusive: 7.31 µM [falling, partial curve] | 
14 | C/C(=N\Nc1nccnc1Cl)c1ccc(Br)cc1 |  | inactive
15 | COc1ccc2oc(C)c(C(=O)c3ccc([N+](=O)[O-])cc3)c2c1 |  | inconclusive: 6.37%
16 | COc1c(C)cc(C(=O)C2CCCN(Cc3ccc(Oc4ncccn4)cc3)C2)cc1C (centres undefined) |  | inconclusive: -18.7%
17 | CCOc1ccc(CCNC(=O)CS(=O)Cc2nc(-c3ccc(C)cc3)oc2C)cc1OCC (centres undefined) |  | inconclusive: -10.6%
18 | O=C(Cn1cnc2c(OCc3ccccc3)ncnc21)NCc1nc2ccccc2[nH]1 |  | inconclusive: 11.2%
19 | CC(C)(C)N(Cc1ccccc1)C(=O)COC(=O)c1cccc([N+](=O)[O-])c1 |  | inconclusive: -0.399%
20 | CC1CCN(C(=O)CN2C(=O)C(=O)N(C)C2=O)c2ccccc2S1 (centres undefined) |  | inconclusive: 5.19%
21 | COC(=O)CNC(c1ccccc1)c1cc(Br)ccc1NC(=O)OCc1ccccc1 (centres undefined) |  | inconclusive: 17.9%

Row | Compound | Potency | activity change, negative = inhibition
22 | O=S(=O)(c1ccccc1)N1CCN(C(=S)NCCCN2CCOCC2)CC1 |  | inactive
23 | CC1=C([N+](=O)[O-])C(c2ccccc2)NC(=O)N1 (centres undefined) |  | inactive
24 | CNC(=O)c1ccsc1NC(=O)c1coc2ccccc2c1=O |  | inconclusive: 11.9%
25 | COC(=O)C(NC(C)=O)(Nc1cccc(C)n1)C(F)(F)F (centres undefined) |  | inconclusive: 4.75%
26 | CCN1CCN(CC(=O)Nc2ccc(Cl)c(S(=O)(=O)N(C)C)c2)CC1 |  | inactive
27 | COC(=O)c1cnn2c(C)c(Cc3cccc(F)c3)c(C)nc12 |  | inconclusive: 21.8%
28 | Clc1ccc(-c2csc(-c3cccnc3)n2)s1 |  | inconclusive: 7.88%
29 | Cc1ccc2c(c1C)OC(=O)CC2c1ccccc1 (centres undefined) |  | inconclusive: 4.43%
30 | Cc1cc(C)cc(NC(=O)C2CCC(CNC(=O)[C@@H]3Cc4ccccc4CN3)CC2)c1 (some centres undefined) | inconclusive: 12.6 µM [falling, partial curve] | 
31 | CCn1ccnc1CNCc1cn(-c2cc(C)ccc2C)nc1-c1ccccc1 |  | inactive
32 | COc1ccc2cc(C(=O)NCCc3ccccc3)[nH]c2c1 |  | inconclusive: -12.4%
33 | CSc1nccc(Nc2ccccc2)c1C#N |  | inconclusive: -2.72%
34 | CCc1ccc(NC(=O)COC(=O)c2cccs2)cc1 |  | inconclusive: 7.77%
35 | N=c1c(C(=O)NC2CCCC2)cc2c(=O)n3ccccc3nc2n1CC1CCCO1 (centres undefined) |  | inactive
36 | C/C=C\C=C/C(=O)Nc1cccc(C2=NOC3(C2)C[C@@H](C(N)=O)N(C(=O)CCCCC)C3)c1 (some centres undefined) |  | inactive
37 | CN(C)c1ncc(S(=O)(=O)c2ccccc2)c(-c2ccccc2Cl)n1 |  | inconclusive: 7.52%
38 | Cc1cccc(C(=O)Nc2nnc(Cc3c[nH]c4ccccc34)s2)c1 |  | inconclusive: -148%
39 | O=C(OCc1ccccc1C(F)(F)F)c1cc([N+](=O)[O-])ccc1N1CCOCC1 |  | inconclusive: -0.966%
40 | O=C(OCc1nnc(-c2ccccc2)o1)c1cc(=O)c2ccccc2o1 | inconclusive: 22.4 µM [falling, single point] | 
41 | O=C(NCc1ccccc1Cl)C(=O)NCC1OCCCN1S(=O)(=O)c1cccs1 (centres undefined) |  | inactive
42 | Cc1ccc(Nc2nc(Cl)nc(NC(C)(C)C)n2)cc1 |  | inconclusive: 12.1%

Three compounds already listed, sorted by count of non-hydrogen atoms, smallest number first:
Row | Compound | Potency | activity change, negative = inhibition
33 | CSc1nccc(Nc2ccccc2)c1C#N |  | inconclusive: -2.72%
22 | O=S(=O)(c1ccccc1)N1CCN(C(=S)NCCCN2CCOCC2)CC1 |  | inactive
5 | COc1ccccc1CNC(=O)CCc1c(C)nc2cc(-c3ccccc3OC)nn2c1C | inconclusive: 14.1 µM [falling, partial curve] | 

Continued.

Row | Compound | Potency | activity change, negative = inhibition
43 | COCCn1c(SCc2cc(C(C)=O)ccc2OC)nc2cc(Cl)ccc2c1=O |  | inactive
44 | CCN(C(=O)COC(=O)c1cc([N+](=O)[O-])ccc1N1CCOCC1)c1ccccc1 |  | inconclusive: -12%
45 | O=C1NCCCCC1NS(=O)(=O)c1ccc(F)c(F)c1 (centres undefined) |  | inconclusive: 11.8%
46 | COc1cc(OC)cc(-c2sc3ccc(OC)cc3c2-c2ccc(OCCN3CCCCC3)cc2)c1 | inconclusive: 23.1 µM [falling, partial curve, poor fit] | 
47 | COc1ccc(-c2cccc3c2NC(=O)C3=O)cc1OC | inconclusive: 4.11 µM [cytotoxic, single point] | 
48 | CC(C(=O)NCc1ccc(F)cc1)n1ccc2cc(S(=O)(=O)N3CCCC3)ccc21 (centres undefined) |  | inactive
49 | CC1CCc2c(sc3nc(CSc4ncn[nH]4)[nH]c(=O)c23)C1 (centres undefined) | inconclusive: 5.8 µM [falling, single point] | 
50 | COc1cc(CN(C)CC2CCCN(CCc3ccccc3F)C2)cc(Cl)c1OC (centres undefined) |  | inconclusive: 0.735%
51 | O=C(CN(c1ccc(F)cc1)S(=O)(=O)c1ccc2c(c1)OCCO2)Nc1ccccc1 |  | inconclusive: 1.78%
52 | CCN1CC2=C(OC(N)=C(C#N)C2c2ccccc2)/C(=C\c2ccccc2)C1 (centres undefined) |  | inconclusive: -15.5%
53 | Cc1ccc2[nH]c3c(c2c1)CCC3=O |  | inconclusive: 0.901%
54 | O=[N+]([O-])c1ccc(-c2nc(NCC3CCCO3)c3ccccc3n2)cc1 (centres undefined) |  | inconclusive: 12.9%
55 | C#CCOCCOCCOCCNc1nc(N2CCN(C(=O)CCCCCCCCCCNC(=O)[C@@H](CCC(=O)O)n3cc(CCCCCN)nn3)CC2)nc(N2CCN(C(=O)CCCCCCCCCCNC(=O)[C@H]([C@@H](C)CC)n3cc(CCCCCN)nn3)CC2)n1 |  | inconclusive: 19%
56 | Cc1cc(OCCCCCNCCO)cc(C)c1Cl | inconclusive: 35.5 µM [falling, single point] | 
57 | COc1ccc(C2SCC(=O)N2c2nc3ccccc3s2)cc1 (centres undefined) |  | inactive
58 | CC1CCN(CCOc2ccc(OCc3ccccc3)cc2)CC1 |  | inactive
59 | Cc1nnc2ccc(-c3cccc(NC(=O)Cc4cccs4)c3)nn12 |  | inconclusive: 3.12%
60 | Cc1cc(NC(=O)c2cccnc2)ccc1Br |  | inactive
61 | CCCCNC(=S)N/N=C1\CCCCc2ccccc21 |  | inconclusive: -2.28%
62 | CCc1noc(C)c1C(=O)NNC(=O)c1cc(OC)c(OC)c(OC)c1 |  | inconclusive: 7.96%
63 | C/C(=N\NC(=O)c1cccc(C)c1)c1ccc(N2CCOCC2)cc1 | inconclusive: 23.1 µM [falling, partial curve] | 

Row | Compound | Potency | activity change, negative = inhibition
64 | COc1ccccc1/C=C/C(=O)Nc1cccc(C(C)=O)c1 | inconclusive: 31.6 µM [falling, partial curve] | 
65 | CC(C)c1nnc(NC(=O)c2cccnc2)s1 | inconclusive: 18.4 µM [falling, single point] | 
66 | c1ccc(-c2ccc(CN3CCN(c4ncccn4)CC3)cc2)cc1 |  | inconclusive: 7.16%
67 | CCOC(=O)c1cn(Cc2ccccc2)nn1 |  | inconclusive: 8.35%
68 | CC(C)c1nc2cc3ccccc3cc2[nH]1 | inconclusive: 22.4 µM [falling, single point] | 
69 | CCn1c(N)[n+](CC(=O)Nc2ccc(SC(F)F)cc2)c2ccccc21 |  | inactive
70 | Cc1cc2oc(=O)cc(CN3CCCCC3C)c2cc1C (centres undefined) |  | inactive
71 | CC(=O)Oc1c(Cl)cc(Cl)cc1/C=C/c1ccc2ccccc2n1 |  | inconclusive: 0.917%
72 | Cc1ccc(CN2C(=O)C3CCCN3c3ccc(S(=O)(=O)N4CCOCC4)cc32)cc1 (centres undefined) |  | inactive
73 | CC1CC(C)CN(c2nc(N(C)c3ccccc3)nc(N)c2[N+](=O)[O-])C1 (centres undefined) |  | inconclusive: 26.5%
74 | CC1(C)CC(=O)c2c(Cc3ccccc3)noc2C1 |  | inactive
75 | CCS(=O)(=O)c1ccc(Sc2nncn2C)c([N+](=O)[O-])c1 |  | inconclusive: 26.8%
76 | CCOc1ccc(-c2nnc(N3CCOCC3)c3ccccc23)cc1 |  | inconclusive: 1.7%
77 | COc1ccc(OCC(O)CN2C(=O)c3ccccc3C2=O)cc1 (centres undefined) |  | inconclusive: -0.697%
78 | O=C(CSc1cccc2cccnc12)N/N=C/c1cccc(O)c1 | inconclusive: 7.94 µM [falling, partial curve] | 
79 | CCCCn1nc2cc(C(=O)NCc3ccc4c(c3)OCO4)ccc2c1OCC |  | inconclusive: 3.8%
80 | Cc1cc(OCC(=O)OCC(=O)N(C)C2CCS(=O)(=O)C2)ccc1Cl (centres undefined) |  | inactive
81 | COc1ccc(C(=O)COC(=O)c2ccc(NC(C)=O)cc2)cc1[N+](=O)[O-] |  | inconclusive: -18.6%
82 | Cc1cccc(N(Cc2cc3ccc(C)cc3[nH]c2=O)C(=O)c2ccco2)c1 | inconclusive: 20 µM [falling, partial curve, poor fit] | 
83 | CCOC(=O)Nc1ccc2c(CN3CCN(S(=O)(=O)c4ccc(C(C)C)cc4)CC3)cc(=O)oc2c1 |  | inconclusive: -0.35%
84 | CN=C(Nc1ccccc1)SC1CC(=O)N(c2ccc(C(=O)OC)cc2)C1=O (centres undefined) |  | inconclusive: -11.5%
